Paper doi:10.1101/2024.01.16.575974
No constants are given. Whether binding was seen depends on the method and setting. Binding calls can cover weak binding; strength is not graded here.

Protein sequences, listed by entry. Tags and fused reporters are not part of them. Lines headed by an entry give the natural chain unless they say otherwise; changes in a name come on top.
UniProt O34876: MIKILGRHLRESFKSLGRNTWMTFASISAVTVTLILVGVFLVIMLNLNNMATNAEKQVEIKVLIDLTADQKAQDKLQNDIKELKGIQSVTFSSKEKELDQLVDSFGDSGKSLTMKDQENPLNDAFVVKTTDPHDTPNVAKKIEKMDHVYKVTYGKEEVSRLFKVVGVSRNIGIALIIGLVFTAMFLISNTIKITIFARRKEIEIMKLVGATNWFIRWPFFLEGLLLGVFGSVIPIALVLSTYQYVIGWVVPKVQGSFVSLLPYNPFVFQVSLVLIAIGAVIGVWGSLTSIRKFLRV

B1: Escherichia coli FtsA, endogenous (protein, UniProt P0ABH0 1-420)
chain: MIKATDRKLVVGLEIGTAKVAALVGEVLPDGMVNIIGVGSCPSRGMDKGGVNDLESVVKCVQRAIDQAELMADCQISSVYLALSGKHISCQNEIGMVPISEEEVTQEDVENVVHTAKSVRVRDEHRVLHVIPQEYAIDYQEGIKNPVGLSGVRMQAKVHLITCHNDMAKNIVKAVERCGLKVDQLIFAGLASSYSVLTEDERELGVCVVDIGGGTMDIAVYTGGALRHTKVIPYAGNVVTSDIAYAFGTPPSDAEAIKVRHGCALGSIVGKDESVEVPSVGGRPPRSLQRQTLAEVIEPRYTELLNLVNEEILQLQEKLRQQGVKHHLAAGIVLTGGAAQIEGLAACAQRVFHTQVRIGAPLNITGLTDYAQEPYYSTAVGLLHYGKESHLNGEAEVEKRVTASVGSWIKRLNSWLRKEF

Columns and labels:
[1] = target: T1, Bacillus subtilis FtsE (Bacillus subtilis subsp. subtilis ATCC 23857) (UniProt O34814); assay: SEC
T1 sequence: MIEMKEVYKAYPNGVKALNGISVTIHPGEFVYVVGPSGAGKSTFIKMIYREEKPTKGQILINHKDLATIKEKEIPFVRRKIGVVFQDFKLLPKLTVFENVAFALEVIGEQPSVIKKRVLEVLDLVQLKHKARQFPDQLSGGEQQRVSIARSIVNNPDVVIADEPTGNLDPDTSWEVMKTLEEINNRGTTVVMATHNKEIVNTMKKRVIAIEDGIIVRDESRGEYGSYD

[2] = target: Streptococcus pneumoniae FtsEX complex overexpressed in E. coli (Streptococcus pneumoniae); assay: styrene-maleic acid isolation and affinity purification

Row | Molecule | binding [1] | binding [2]
1 | Bacillus subtilis FtsX (from UniProt O34876) | binds | –
2 | B1 | – | binds
